Publication PMC6925144, “A prospective compound screening contest identified broader inhibitors for Sirtuin 1” (Scientific Reports, 2019)
The full ranking holds about 3,200 compounds; the median of “TSA(with NAD+) / Primary screening (TSA) / delta Tm (K)” is about -0.04, and the highest 2% start at about 0.37. Some of the results follow.

Chains of the proteins cited; added tags and fusions are not shown. Residues count along the entry.
UniProt Q96EB6, 2-747 limits assumed: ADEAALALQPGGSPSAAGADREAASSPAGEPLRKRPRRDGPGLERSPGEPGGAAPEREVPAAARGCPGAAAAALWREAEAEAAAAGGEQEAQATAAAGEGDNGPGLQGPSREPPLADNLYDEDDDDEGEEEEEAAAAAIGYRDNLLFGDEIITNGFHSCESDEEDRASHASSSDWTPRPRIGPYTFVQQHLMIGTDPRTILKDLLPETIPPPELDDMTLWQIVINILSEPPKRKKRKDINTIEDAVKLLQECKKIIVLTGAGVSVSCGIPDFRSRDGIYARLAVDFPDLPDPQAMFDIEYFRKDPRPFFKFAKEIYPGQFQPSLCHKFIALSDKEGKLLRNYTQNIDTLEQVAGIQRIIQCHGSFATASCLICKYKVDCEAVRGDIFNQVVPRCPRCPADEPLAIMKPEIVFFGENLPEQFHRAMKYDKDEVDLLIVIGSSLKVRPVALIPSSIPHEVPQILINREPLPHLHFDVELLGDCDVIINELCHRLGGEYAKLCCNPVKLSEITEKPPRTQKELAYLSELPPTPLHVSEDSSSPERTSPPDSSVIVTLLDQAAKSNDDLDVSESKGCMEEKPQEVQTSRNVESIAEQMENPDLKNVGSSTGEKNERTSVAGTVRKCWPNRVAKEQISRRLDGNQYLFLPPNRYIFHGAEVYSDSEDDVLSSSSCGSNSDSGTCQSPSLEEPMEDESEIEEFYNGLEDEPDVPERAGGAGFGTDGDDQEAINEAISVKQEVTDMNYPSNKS

Target: NAD-dependent deacetylase Sirtuin 1 (human, UniProt Q96EB6)
Assay: primary screen, delta tm
Set-up: single well (n = 1, as 'the same TSA')
Conditions: 10 µM

Structure (SMILES)	TSA(with NAD+) / Primary screening (TSA) / delta Tm (K)
CC(=C/c1ccccc1)/C=N/NC(=O)c1cc(-c2ccc(C)cc2)n[nH]1	1.11
CC(C)Cc1ccc(C(=O)C2CCN(C(=O)c3cnc4ccccc4n3)CC2)cc1	-0.03
O=C(NCc1ccc(-n2cnc3ccccc32)nc1)c1ccc2[nH]cnc2c1	0.02
Cc1cc(N(C)C)n2nc(C(F)(F)F)c(-c3ccccc3)c2n1	-0.05
ClC1=Nc2c(cnn2-c2ccccc2)CN1	-0.09
O=C(O)c1cccc(CNC(=O)c2ccc3[nH]ccc3c2)c1	-0.11
Cc1ccc(C23CC4CC(CC(C(=O)N5CCN(S(=O)(=O)Cc6ccccc6)CC5)(C4)C2)C3)cc1	-0.08
N#Cc1ccc(NCC2CCN(c3ncnc4ccsc34)C2)nc1 (stereo not drawn)	-0.08
Cc1cc(C)c2c(n1)sc1c(N3CCN(CCO)CC3)ncnc12	0.18
COc1ccc(C)c2c1N(C(=O)c1cccc(-n3cnnn3)c1)CCC2	-0.13
CS(=O)(=O)c1cccc(C(=O)N(Cc2ccccc2)c2ccccc2)c1	0.11
CCS(=O)(=O)NC(C)C(=O)O (stereo not drawn)	0.08
Cc1ccsc1CN(C)C(=O)CCc1nc2ccccc2n(CCc2ccccc2)c1=O	0.06
CCCn1nnnc1CN1C(=O)NC(Cc2c[nH]c3ccccc23)C1=O (stereo not drawn)	-0.21
O=c1[nH]c2sc3c(c2c2nc(-c4ccc(Br)cc4)nn12)CCCCC3	0.13
Cc1ccc(C(=O)C2=C(O)C(=O)N(CCCN3CCOCC3)C2c2cccc(Br)c2)cc1 (stereo not drawn)	0.05
COCc1cc(NCc2cnn(Cc3ccccc3)c2)n2ncnc2n1	0.03
CCC(=O)N(c1nnc(SCC(=O)c2ccc(-c3ccccc3)cc2)s1)C1CC1	-0.02
Cn1ccc(CC(=O)Nc2nc(-c3cc(C(N)=O)co3)cs2)n1	-0.15
CCOc1ccc(NC(=O)CN(C)Cc2ccc(C(=O)Nc3ccccc3)cc2)cc1OCC	-0.02
CCC(C)c1ccc(NC(=O)C(C#N)C(=O)c2cncc(F)c2)cc1 (stereo not drawn)	0.18
Nc1ncc(Cc2ccc(Br)cc2)s1	-0.11
CC(CNC(=O)C1CCCN1C(=O)c1ccc2c(c1)OCO2)N(C)C (stereo not drawn)	-0.16
Cc1ccccc1CN1CCN(C(C)C(=O)Nc2sccc2C(N)=O)CC1 (stereo not drawn)	-0.09

Fetched by compound from the list above (three):
Structure (SMILES)	TSA(with NAD+) / Primary screening (TSA) / delta Tm (K)
O=c1[nH]c2sc3c(c2c2nc(-c4ccc(Br)cc4)nn12)CCCCC3	0.13
CC(CNC(=O)C1CCCN1C(=O)c1ccc2c(c1)OCO2)N(C)C (stereo not drawn)	-0.16
ClC1=Nc2c(cnn2-c2ccccc2)CN1	-0.09

Arranged by heavy-atom count (rising): part of the list above.
Structure (SMILES)	TSA(with NAD+) / Primary screening (TSA) / delta Tm (K)
Cc1cc(N(C)C)n2nc(C(F)(F)F)c(-c3ccccc3)c2n1	-0.05
COc1ccc(C)c2c1N(C(=O)c1cccc(-n3cnnn3)c1)CCC2	-0.13
Cc1ccsc1CN(C)C(=O)CCc1nc2ccccc2n(CCc2ccccc2)c1=O	0.06
Cc1ccc(C23CC4CC(CC(C(=O)N5CCN(S(=O)(=O)Cc6ccccc6)CC5)(C4)C2)C3)cc1	-0.08

Going on with the list:

Structure (SMILES)	TSA(with NAD+) / Primary screening (TSA) / delta Tm (K)
O=C(OCc1cccc(C(F)(F)F)c1)c1cnc2sccn2c1=O	-0.09
COc1ccc(CN2CCN(c3ncnc4sc5c(c34)CCCCC5)CC2)cc1	-0.21
Cn1cc(C2CCNC2)c2ccccc21 (stereo not drawn)	0.01
N#C/C(=C/c1ccc(-c2cccc(Cl)c2Cl)o1)C(=O)Nc1cccc2ncccc12	-0.19
CN1/C(=C/C=C2C(=O)NC(=S)NC2=O)C(C)(C)c2ccccc21	-0.01
Cc1nc(C)c(-c2nnc(SCC(=O)N3CCN(Cc4cccs4)CC3)o2)s1	-0.05
O=C1c2ccccc2NC2(CCCCC2)N1c1ccc2c(c1)OCCO2	0.06
O=C1NC(=O)c2ccccc2/C1=C\NNC(=O)C12CC3CC(CC(C3)C1)C2	0.48
COc1cccc(N2C(=O)NC(=O)C2=O)c1	-0.18
Cc1ccc(C2CCCN2)cc1 (stereo not drawn)	-0.04
Cc1cccn2cc(CSc3nc4ccsc4c(=O)n3C)nc12	-0.29
Nc1nc(COC(=O)c2cccc(NC(=O)c3cccs3)c2)nc(Nc2ccccc2)n1	0.42
O=C(Nc1ccccc1Cc1ccccc1)c1ccc2ccccc2c1	-0.01
CC(C)(C)c1noc(CCCC(=O)Nc2ccc(F)c(C(N)=O)c2)n1	-0.01
CCC(=O)N1N=C(c2cccs2)CC1c1ccc(OC)cc1 (stereo not drawn)	-0.22
NC(=O)c1ccc(C(=O)OCC(=O)Nc2ccccc2-c2ccccc2)cc1	0.25
CN(c1ccccc1)S(=O)(=O)c1cccc(C(=O)Nc2ccccc2C(F)(F)F)c1	0.07
O=C(NC1CCCc2ccccc21)C(c1ccccc1)c1ccccc1 (stereo not drawn)	-0.11
COc1ccc(S(=O)(=O)Nc2ccccc2OC)cc1NN=C1C(=O)NC(=S)NC1=O	0.05
Cc1ccc(-n2ccnc2SCC(=O)N(CCC(N)=O)Cc2ccccc2)c(C)c1	0.01
Cc1ccc(C(=O)C2=C(O)C(=O)N(CCCN3CCOCC3)C2c2ccc(OC(C)C)cc2)cc1 (stereo not drawn)	-0.01
COCC(C)N (stereo not drawn)	-0.04
O=C(CCn1[nH]c(=O)ccc1=O)Nc1nc2ccccc2s1	0.01
O=C(CSc1nccn1Cc1ccccn1)c1cccc(OC(F)F)c1	-0.13

Structure (SMILES)	TSA(with NAD+) / Primary screening (TSA) / delta Tm (K)
CC(C)(C)OC(=O)N1CCCC1C(=O)N1CCN(c2cnccn2)CC1 (stereo not drawn)	-0.09
N#Cc1c(=O)c2cccnc2n2c1[nH]c1ccccc12	-0.03
NCCOCC(=O)O	-0.13
C=C(C)CCN	-0.21
O=C(CSc1nnc(NCC2CCCO2)s1)Nc1nc(-c2cc(F)ccc2F)cs1 (stereo not drawn)	0.01
CCOc1ccc(-n2c(C)cc(C(=O)COc3ccccc3C(N)=O)c2C)cc1	-0.18
CCCOc1ccc(C2C(C(=O)/C=C/c3ccco3)=C(O)C(=O)N2CCCN2CCOCC2)cc1 (stereo not drawn)	-0.06
c1ccc(CN2CCCCCC2)c(CNc2ccc3nnnn3n2)c1	-0.04
COc1ccc2cc(CN(C)CC(=O)Nc3ccc(C)cc3)ccc2c1	0.03
CCC(C)c1ccccc1NC(=O)Cc1coc2cc3c(cc12)CCC3 (stereo not drawn)	-0.03
CCc1ccc(N(C(C)=O)c2nc(COC(=O)CNC(=O)C34CC5CC(CC(C5)C3)C4)cs2)cc1	-0.13
CCOc1ccc2[nH]c(SCC(=O)N3CCCCC3C(N)=O)nc2c1 (stereo not drawn)	-0.05
CC(OC(=O)CCC(=O)c1ccc(F)cc1)C(=O)Nc1ccc(C(N)=O)cc1 (stereo not drawn)	-0.06
Cc1cc(CNc2ccc(Cl)cc2C(N)=O)no1	0.01
COc1cc(/C=N/NC(=O)c2cc3c(s2)CCCC3)ccc1OCC(=O)Nc1ccc(C)cc1	0.52
CC1CCc2[nH]c3ccc(C(=O)NC4CC4)cc3c2C1 (stereo not drawn)	0.07
O=C(Cn1ccc(=O)c2ccccc21)Nc1ccc(N2CCCCC2)nc1	-0.08
O=C1CCCN1c1ccc(O)cc1	-0.11
O=C(CSc1nc(-c2ccccc2)c(-c2ccccc2)o1)c1c[nH]c(C(=O)N2CCCC2)c1	0.07
O=C(O)c1ccc2[nH]c3c(c2c1)CCCC3	-0.11
Cc1ccccc1N1C(=O)c2ccc(C(=O)OCC(N)=O)cc2C1=O	-0.15
O=C(CCCn1c(=O)oc2cc([N+](=O)[O-])ccc21)N1CCN(Cc2ccc(Cl)s2)CC1	-0.22
Cc1c(F)cc(C(N)=O)cc1NCC(=O)Nc1ccc([N+](=O)[O-])cc1	-0.04
CN(c1ccccc1)S(=O)(=O)c1cccc(NC(=O)CNc2cccc3ccccc23)c1	0.41

Structure (SMILES)	TSA(with NAD+) / Primary screening (TSA) / delta Tm (K)
O=C1CCN(c2ncnc3cc(Cl)ccc23)CCN1	0.09
O=C(NCCN1CCN(c2ccc(F)cc2)CC1)c1cc[nH]n1	-0.08
CC(C)C(CNc1ccc2nnnn2n1)N1CCc2ccccc2C1 (stereo not drawn)	-0.11
Cc1cccc(N(Cc2ccccc2)C(=O)COC(=O)C23CC4CC(CC(O)(C4)C2)C3)c1	-0.01
COc1cccc(C2C(C(=O)c3ccc(Cl)cc3)=C(O)C(=O)N2CCCN2CCOCC2)c1 (stereo not drawn)	-0.08
Cn1c(-c2ccccc2)cc2ccccc21	-0.01
Cn1cc(C(=O)O)c(-c2cccnc2)n1	0.06
NC(=O)C1NCCc2c(N)cccc21 (stereo not drawn)	-0.09
CCOc1cccc(C2C(C(=O)c3sc(C)nc3C)=C(O)C(=O)N2CCCN2CCOCC2)c1 (stereo not drawn)	-0.13
COc1ccc(N(C)S(=O)(=O)c2cccc(C(=O)N(C)CCOc3ccc(F)cc3)c2)cc1	0.05
CN(c1ccccc1)S(=O)(=O)c1cccc(NC(=O)COc2ccc3oc4ccccc4c3c2)c1	-0.43
CCOc1ccc(C2C(C(=O)c3ccc(Cl)cc3)=C(O)C(=O)N2CCCN2CCOCC2)cc1 (stereo not drawn)	-0.02
O=C(COC(=O)c1cccc(S(=O)(=O)NCc2ccccc2)c1)NC12CC3CC(CC(C3)C1)C2	-0.25
O=c1oc2cc(O)ccc2cc1-c1csc(-c2cc3c(ccc4ccccc43)oc2=O)n1	0.09
O=C(CSc1ccccc1C(=O)Nc1ccccc1N1CCOCC1)NC12CC3CC(CC(C3)C1)C2	-0.05
NNC(=O)CCN1CCCCCC1	-0.13
COc1cc(C#N)cc(OC)c1OC	0.06
CCC(CNc1nc(-c2ccncc2)nc2ccccc12)N1CCCC1 (stereo not drawn)	-0.01
Cc1ccc(-c2cc(C(=O)OC(C)C(=O)Nc3cccc([N+](=O)[O-])c3)[nH]n2)cc1 (stereo not drawn)	0.25
O=C(CC12CC3CC(CC(O)(C3)C1)C2)N1CC=C(c2ccc(O)cc2)CC1	-0.11
O=C(c1cnc2ccc3[nH]ncc3c2c1)c1ccccc1O	0.06
